# Where “and” joins values, the source holds several entries; their conditions need not be identical. Equal entries are not always repeated. Hit rate of the full screen: of about 340,000 compounds, about 55 (0.02%) were called active. This list was built around the results that the source calls inconclusive (neither active nor inactive); the mix of calls is not that of the screen.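 The calls were made as follows: active = phage lysis inhibition, versus mean bacterial control, above a set limit; inconclusive = no clear call, values can overlap the other calls; inactive = the rest.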
# Experiment: protection from phage-mediated lysis, alamar blue read-out – E. coli UTI89, K1F phage, bacterial capsule biogenesis inhibitors (AID 488966);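 also: capsule biogenesis inhibitors block K1F phage lysis so surviving cells raise fluorescence; higher fluorescence means more inhibition of phage lysis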
# Conditions: 2 h; inhibition: at 100 µM, hits give high values unless noted; series mostly up to 300 µM
row,Compound,inhibition
1,COC(=O)/C=C1\SC(=NC(=O)c2ccc(-c3ccccc3)cc2)NC1=O,inconclusive: 70.1%
2,COc1ccc(NC(=O)C2CCC(C)(C(=O)O)C2(C)C)cc1 (centres undefined),inactive
3,CCc1nnc2sc(-c3cc(-c4ccccc4)nc4ccccc34)nn12,inconclusive: 16.7%
4,O=C(c1ccc(CNS(=O)(=O)c2ccccc2)cc1)N1CCN(c2ccccn2)CC1,inconclusive: 21.6%
5,COc1ccc(OCC(=O)NNC(=S)NC(=O)c2ccc(Br)o2)cc1,inconclusive: 19.4%
6,COc1ccccc1-c1cc(C(=O)Nc2cccnc2)no1,inconclusive: 20.2%
7,CCOc1ccc(C(=O)NN2C(=O)C3C4C=CC(O4)C3C2=O)cc1 (centres undefined),inactive: 0.49%
8,COc1ccc(N2C(=O)CC(N3CCCCC3)C2=O)cc1 (centres undefined),inconclusive: 17.6%
9,CC1(c2ccccc2)NC(=O)N(NC(=O)CSc2n[nH]c(N)n2)C1=O (centres undefined),inactive: 0.72%
10,CCN(CC)CCCNc1nc(-c2ccccc2)nc2ccccc12,"inactive: 0.145% [at 50 µM, hits give high values]"
11,COc1cccc(CCN2CCC(CNS(=O)(=O)c3cc(-c4cc(C)no4)ccc3OC)CC2)c1,inconclusive: 15.7%
12,CN(C)C1=NC[C@H](Cc2ccccc2)N1CC1CCCC1,inactive: 6.41%
13,CC1=C(C(=O)c2ccccc2)C(c2cn(-c3ccccc3)nc2-c2ccc(Cl)cc2)NC(=S)N1 (centres undefined),inconclusive: 16.8%
14,CCc1ccc(-c2cc(C(=O)N/N=C/c3c[nH]c4ccccc34)[nH]n2)cc1,inconclusive: 19%
15,CN(C(=O)NC(=O)C1=C(N2CCOCC2)/C(=C/c2ccccc2)CC1)S(C)(=O)=O,inconclusive: 19.6%
16,CCC1CCCCN1CCCNC(=O)Cn1ncc2c([nH]c3ccc(C)cc32)c1=O (centres undefined),inconclusive: 15.2%
17,N=c1n(CCN2CCCCC2)c2ccccc2n1CC(O)c1cccc(Br)c1 (centres undefined),inactive
18,O=C(C[n+]1cc(-c2ccccc2)n2c1CCC2)Nc1nc(-c2ccc(F)cc2)cs1,inconclusive: 15.9%
19,CC(C)[C@H](NC(=O)N1c2ccccc2NC(=O)[C@@H]1C(C)C)C(=O)N[C@@H](Cc1ccccc1)C(=O)O,inconclusive: 18.1%
20,O=c1[nH]c2ccccc2c2ccc(Cl)cc12,inactive: -0.77%
21,CC(=O)c1ccc(C(=O)Nc2nnc(-c3ccc(Cl)cc3)o2)cc1,inconclusive: 15.6%
22,O=C(Cc1ccsc1)Nc1ccc2c(c1)OCO2,"inactive: 0.48% [at 50 µM, hits give high values]"
23,CN1CCCC1CCOC(C)(c1ccccc1)c1ccc(Cl)cc1 (centres undefined),inconclusive: 17.4%

row,Compound,inhibition
1,CC1=C(CC(=O)c2ccccc2)C(=O)c2ccccc2C1=O,inconclusive: 16.5%
2,COc1ccc2nc(/C=N/NC(=O)CCNC(=O)OC(C)(C)C)ccc2c1,inconclusive: 15.1%
3,C=Cc1cccc(NC(=O)c2ccc(NC(=O)c3ccco3)cc2)c1,inconclusive: 15.6%
4,CC(C)/C=C1\CCc2c([nH]c3ccccc23)C1=O,inactive: 0%
5,CCSc1nc2nccnc2c(=O)[nH]1,inconclusive: 91.5%
6,COc1ccc(C(=O)N2CCN(C)C(C)C2)cc1OC1CCN(C(C)=O)CC1 (centres undefined),inactive: -0.02%
7,Cc1[nH]c2ccc(OC(=O)N3CCOCC3)cc2c1C(=O)OC(C)C,inconclusive: 18%
8,CN1C(=O)NC(=O)C1c1ccccc1 (centres undefined),inconclusive: 51.5%
9,COc1ccc2nc(NC(C)=O)sc2c1,inactive: 0.03%
10,COc1cccc(CNc2cnc3ccccc3c2)c1O,inconclusive: 15.2%
11,Cc1cc2oc3c(c(=O)c2cc1C)C(c1ccc(F)cc1)N(CCCN1CCOCC1)C3=O (centres undefined),inactive: 10.1%
12,Cc1cccc2c1nc(-c1ccccc1)n1nnnc21,inactive: -2.7%
13,N=C(N)c1ccccc1,inactive: 3.36% and inactive: 4.08%
14,Cc1cc(N(C)/N=C/c2ccccc2O)nc(-c2ccccc2O)n1,inactive: -1.22%
15,Cc1c(NC(=S)NC(=O)c2cccc([N+](=O)[O-])c2)c(=O)n(-c2ccccc2)n1C,inactive: -0.17%
16,C/C(=N\NC(=O)c1ccc(Br)cc1)C1C(=O)c2ccccc2C1=O,inconclusive: 74.5%
17,Cc1ccc(N(Cc2ccc(C(=O)Nc3ccccc3C(=O)NCc3ccco3)cc2)S(C)(=O)=O)cc1C,inconclusive: 21.7%
18,Cc1nn(C)c(C(=O)Sc2ccccc2)c1[N+](=O)[O-],inconclusive: 15.5%
19,O=c1[nH]c2sc3c(c2c2nncn12)CCCC3,inconclusive: 19%
20,COc1nnc(-c2ccc(N3CCOCC3)c(NC(=O)c3ccc(C)cc3)c2)c2ccccc12,inconclusive: 19.4%
21,OCCN1CCN(CCCN2c3ccccc3Sc3ccc(Cl)cc32)CC1,inconclusive: 17.8%
22,Oc1cccc(Nc2nc(O)c(/C=C3\C=Nc4ccccc43)s2)c1,inconclusive: 17.9%
23,O=C(CN(C(=O)Cn1nnc(-c2ccccc2F)n1)c1cnc2ccccc2c1)NCC1CCCO1 (centres undefined),inconclusive: 15.3%

# An excerpt of these results, as tab-separated lines:
row	Compound	inhibition
7	Cc1[nH]c2ccc(OC(=O)N3CCOCC3)cc2c1C(=O)OC(C)C	inconclusive: 18%
8	CN1C(=O)NC(=O)C1c1ccccc1 (centres undefined)	inconclusive: 51.5%
9	COc1ccc2nc(NC(C)=O)sc2c1	inactive: 0.03%
10	COc1cccc(CNc2cnc3ccccc3c2)c1O	inconclusive: 15.2%
11	Cc1cc2oc3c(c(=O)c2cc1C)C(c1ccc(F)cc1)N(CCCN1CCOCC1)C3=O (centres undefined)	inactive: 10.1%
12	Cc1cccc2c1nc(-c1ccccc1)n1nnnc21	inactive: -2.7%
13	N=C(N)c1ccccc1	inactive: 3.36% and inactive: 4.08%
14	Cc1cc(N(C)/N=C/c2ccccc2O)nc(-c2ccccc2O)n1	inactive: -1.22%
15	Cc1c(NC(=S)NC(=O)c2cccc([N+](=O)[O-])c2)c(=O)n(-c2ccccc2)n1C	inactive: -0.17%
16	C/C(=N\NC(=O)c1ccc(Br)cc1)C1C(=O)c2ccccc2C1=O	inconclusive: 74.5%
17	Cc1ccc(N(Cc2ccc(C(=O)Nc3ccccc3C(=O)NCc3ccco3)cc2)S(C)(=O)=O)cc1C	inconclusive: 21.7%
18	Cc1nn(C)c(C(=O)Sc2ccccc2)c1[N+](=O)[O-]	inconclusive: 15.5%
19	O=c1[nH]c2sc3c(c2c2nncn12)CCCC3	inconclusive: 19%
20	COc1nnc(-c2ccc(N3CCOCC3)c(NC(=O)c3ccc(C)cc3)c2)c2ccccc12	inconclusive: 19.4%
21	OCCN1CCN(CCCN2c3ccccc3Sc3ccc(Cl)cc32)CC1	inconclusive: 17.8%
22	Oc1cccc(Nc2nc(O)c(/C=C3\C=Nc4ccccc43)s2)c1	inconclusive: 17.9%

# (next part)

row,Compound,inhibition
1,CCCCCCCCCCCCCCC[C@@H](O)[C@@H](N)CO,inconclusive: 17.3%
2,Cc1noc(/C=C/c2ccccn2)c1[N+](=O)[O-],inactive: 0.12%
3,Cc1cc(C)c(NC(=O)COc2nncc3ccccc23)c(C)c1,inactive: -1.44%
4,CCCCNC(=S)NNC(=O)c1c(Cl)c(C)nn1C,inconclusive: 18.3%
5,COc1cccc(/C=N/NC(=S)NCc2ccco2)c1OC,inconclusive: 15.1%
6,O=C(O)CCC(=NNC(=O)c1cccc(S(=O)(=O)N2CCCCC2)c1)c1ccccc1,"inactive: 0.71% [at 50 µM, hits give high values]"
7,CCOC(=O)CNS(=O)(=O)c1cc(-c2nn(C)c(=O)c3ccccc23)ccc1C,inconclusive: 15.1%
8,O=C(NCc1ccccc1)C1CCCN(S(=O)(=O)c2ccc(Br)cc2)C1 (centres undefined),"inactive: 1.64% [at 50 µM, hits give high values]"
9,Cc1ccc(C#CC[N+](C)(C)CC#Cc2ccccc2)cc1,inconclusive: 16.5%
10,CN(C)c1nc(NCc2ccccc2)nc(N/N=C/c2ccc3c(c2)OCO3)n1,inconclusive: 21.5%
11,C=CCN(CC=C)Cc1c(C)[nH]c2ccc(C(=O)OCC)cc2c1=O,inconclusive: 15.9%
12,O=C(CCc1ccccc1)N=C1SC2CS(=O)(=O)CC2N1c1ccc(F)cc1 (centres undefined),inactive: 0.07%
13,Cc1cc(N/N=C/c2ccc(Cl)cc2Cl)nc(NCc2ccccc2)n1,inconclusive: 15.2%
14,CCOc1ccc(C2c3c(oc4cc(C)c(C)cc4c3=O)C(=O)N2CCCN2CCOCC2)cc1 (centres undefined),inconclusive: 16.9%
15,COc1ccc(C(=O)OCC(=O)Nc2nnc(-c3ccccc3)o2)cc1,inconclusive: 122%
16,S=C(Nc1ccc(Oc2ccccc2)cc1)NC1CCCC1,inconclusive: 15.5%
17,CN(C)CC(O)COc1ccc(C(C)(C)c2ccc(OCC(O)CN(C)C)cc2)cc1 (centres undefined),inconclusive: 18%
18,OCC1OC(n2cnc3c(SCc4ccccc4)nc(F)nc32)C(O)C1O (centres undefined),inconclusive: 103%
19,CN1CCN(C(c2ccccc2)c2ccc(Cl)cc2)CC1 (centres undefined),inconclusive: 19.3%
20,Cc1ccc2nc(C3CCCN3Cc3nc(CCC(C)C)no3)[nH]c2c1 (centres undefined),inactive: 0.57%
21,c1ccc2c(-c3cncc4ccccc34)cncc2c1,inactive: 0.59%
22,COc1ccc(N2C(=O)CNC2=S)cc1,inconclusive: 16.7%
23,CCCOc1ccc(/C=C/C(=O)NC2CCCCC2)cc1OC,inconclusive: 16.1%

row,Compound,inhibition
1,O=C1CNC(=S)N1Cc1ccccc1Cl,inconclusive: 15.8%
2,Nc1nc(-c2ccccn2)nc(N)c1Cc1ccccc1F,inconclusive: 15.9%
3,COC(=O)C(C)Sc1nnc(Cc2cc(=O)[nH]c(=O)[nH]2)n1-c1ccc(Cl)cc1 (centres undefined),inconclusive: 16.5%
4,Cc1ccc2[nH]cc(C(=O)NCc3cccs3)c(=O)c2c1,inconclusive: 15.1%
5,Cc1cccc(NC(=O)/C(C#N)=C/c2ccc(Cl)cc2)n1,inactive: 0%
6,O=C(O)c1ccc(CN2C(=O)CSC2=S)cc1,inconclusive: 115%
7,C=CCn1c(-c2ccc(C)cc2)nc2ccccc21,inconclusive: 18.3%
8,Cc1ccc(C(=O)NC(=S)Nc2ccccc2N2CCCC2)cc1[N+](=O)[O-],inconclusive: 15.1%
9,COc1ccc(C(=O)N2CCCC(c3nc(-c4cccs4)no3)C2)cc1 (centres undefined),inconclusive: 15.1%
10,N=C(N)SCCc1cnc[nH]1,inactive: 1.68%
11,CCOc1ccccc1NC(=S)NC1CCCCC1,inconclusive: 21%
12,CC1=C(C(=O)OCC(C)C)C23C(=O)c4ccccc4C2(O1)OC(N)=C3C#N (centres undefined),inactive: 0.06%
13,COc1ccccc1-c1nc(C#N)c(N2CCN(c3cccc(Cl)c3)CC2)o1,inconclusive: 20.6%
14,CCC(=O)OCC(=O)Nc1cc([N+](=O)[O-])ccc1Cl,inconclusive: 20.8%
15,CCOc1ccc(NC(=O)CCN2CCN(c3ccccc3F)CC2)cc1,inconclusive: 15.4%
16,CC(C)N=c1scc(-c2cccs2)n1/N=C/c1ccc(O)c(O)c1O,inconclusive: 17.2%
17,COc1ccc(C2c3c(ncn(Cc4ccco4)c3=N)Oc3ccc4ccccc4c32)cc1 (centres undefined),inconclusive: 17.7%
18,Cc1ccc(Sc2ncccc2C(=O)NCc2cc([N+](=O)[O-])ccc2O)c(C)c1,inactive
19,Clc1ccc(-c2ccc(/C=N/Nc3nncc(-c4ccccc4)n3)o2)cc1,inactive: 0.65%
20,Cc1ccc(-c2csc3ncnc(NCCC(=O)O)c23)cc1,inconclusive: 49.7%

# Reference: PubChem BioAssay AID488966 (Southern Research Specialized Biocontainment Screening …, 2010)
